Paper PMC7963146
Results are given in words; binding and its absence hold for the method and conditions named. Binding seen in cells or lysates may run through a third protein. Some results given as binding are weak or reduced against the parent protein; the word gives no strength.

Target: adenosine A2A receptor fused to YFP (human) (UniProt P29274)
Experiment: FRET or BRET; BRET between ß-arrestin 2-Rluc and A2AR-YFP in HEK-293T cells that also express CB1R; agonists CGS 21680 and/or ACEA for 2 min, antagonists SCH 58261 or SR 141716A, pretreatment with 1 µM methamphetamine or vehicle for 30 min

binding: binds weakly
Substance: ß-arrestin 2 fused to Rluc (from UniProt P32121 1-409)
